Consider 51 compounds from PubChem BioAssay AID1332 (Southern Research Institute, 2008).

SMILES strings stand for the structures. Converted amounts (≈) assume the structure as drawn. Some of the results follow. Shown are side measurements of this screen, not its main read-out; they come without a call.

In general, IC50 refers to the concentration needed to halve the response being measured. A low value points to higher potency. The term CC50 denotes the concentration that lowers cell viability or growth by half.

The nature of this experiment: Mycobacterium tuberculosis H37Rv growth inhibition, confirmatory dose response, cytotoxicity (AID 1332).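 As to CC50: Vero cells exposed to compounds for 72 hours.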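 As to IC50: bacteria incubated 7 days before adding Alamar blue readout reagent.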 The following applies: M. tuberculosis H37Rv growth inhibition; CC50: measured here: Vero cell cytotoxicity; IC50: measured here: IC50 H37Rv replicates.
In turn, `C[C@@H]1NCCc2cc(O)c(O)cc21` displayed an IC50 of more than 20 µg/mL.
`Cc1cc(=O)oc2cc(O)ccc12`: the IC50 is more than 20 µg/mL.
`CCC1(CC)C(=O)C=CNC1=O` showed an IC50 of more than 20 µg/mL.
Consider `COc1cc(C(=O)OC2C[C@H]3CC[C@@H](C2)N3C)ccc1O` (some centres undefined), for which the IC50 is more than 20 µg/mL.
Still for that read-out and setting: the result for `CCOC(=O)OC(C)OC(=O)[C@@H]1N2C(=O)[C@@H](NC(=O)[C@H](N)c3ccccc3)[C@H]2SC1(C)C` (some centres undefined) reads more than 20 µg/mL; that for `NCCCC[C@H](N[C@@H](CCc1ccccc1)C(=O)O)C(=O)N1CCC[C@H]1C(=O)O`, more than 20 µg/mL; that for `CC(C)(C)NC[C@H](O)COc1nsnc1N1CCOCC1`, more than 20 µg/mL.
Still for that read-out and setting: the result for `C1CCN2C[C@@H]3C[C@@H](CN4CCCC[C@@H]34)[C@H]2C1` reads more than 20 µg/mL.
On the same count and under the same terms, the result for `COc1ccc2c(OC)c3ccoc3nc2c1OC` reads more than 20 µg/mL; that for `CC1CC(OC(=O)C(O)c2ccccc2)CC(C)(C)N1C` (centres undefined), more than 20 µg/mL; that for `Cc1nnc(NS(=O)(=O)c2ccc(N)cc2)s1`, 2.29 µg/mL (≈ 8.47 µM).
`C[C@@H]1O[C@@H](O[C@H]2C[C@@H](O)[C@]3(CO)[C@H]4[C@H](O)C[C@]5(C)[C@@H](C6=CC(=O)OC6)CC[C@]5(O)[C@@H]4CC[C@]3(O)C2)[C@H](O)[C@H](O)[C@H]1O` gave a CC50 of 0.092 µg/mL (≈ 0.157 µM) and an IC50 of more than 20 µg/mL.
In turn, `O=C(O)COC(=O)Cc1ccccc1Nc1c(Cl)cccc1Cl` had an IC50 of more than 20 µg/mL.
`CC[C@H]1CN2CCC1C[C@H]2[C@H](O)c1ccnc2ccc(OC)cc12` (some centres undefined) yielded an IC50 of more than 20 µg/mL.
As for `COc1ccc2c3c([nH]c2c1)C(C)=NCC3`, the IC50 was more than 20 µg/mL.
For the compound `CCCN1CCC[C@@H]2Cc3[nH]ncc3C[C@H]21`, the IC50 was more than 10 µg/mL.
The same measure, in the same setting: the result for `CCn1nc(C(=O)O)c(=O)c2cc3c(cc21)OCO3` reads more than 20 µg/mL.
Compound `CCCCNc1ccc(C(=O)OCCOCCOCCOCCOCCOCCOCCOCCOCCOC)cc1` registered an IC50 of more than 20 µg/mL.
Still for that read-out and setting: the result for `O=C(O)/C=C/c1ccc(Cn2ccnc2)cc1` reads more than 20 µg/mL; that for `CCC1=C(C)CN(C(=O)NCCc2ccc(S(=O)(=O)NC(=O)NC3CCC(C)CC3)cc2)C1=O` (centres undefined), more than 20 µg/mL; that for `CC1/C=C/C=C/CC/C=C/C=C/C=C/C=C/C(O[C@@H]2O[C@H](C)[C@@H](O)[C@H](N)[C@@H]2O)CC(O)C(C(=O)O)C(O)CC(=O)CC(O)C(O)CCC(O)CC(O)CC(O)CC(=O)OC(C)C(C)C1O` (some centres undefined), more than 20 µg/mL.
`Oc1ccc(OCc2ccccc2)cc1` came in with a CC50 of 2.71 µg/mL (≈ 13.5 µM) and an IC50 of more than 20 µg/mL.
As to `C[C@H]1C[C@H]2[C@@H]3CCC4=CC(=O)C=C[C@]4(C)[C@@]3(F)[C@@H](O)C[C@]2(C)[C@@]1(O)C(=O)CO`, the IC50 is more than 20 µg/mL.
On the same count and under the same terms, the result for `Cc1ccc(Cl)c(Nc2ccccc2C(=O)O)c1Cl` reads more than 20 µg/mL.
In the case of `COC(=O)Nc1nc2ccc(SC(C)C)cc2[nH]1`, the CC50 was more than 6 µg/mL and the IC50 was more than 20 µg/mL.
In turn, `CCN1CCN(C(=O)N[C@@H](C(=O)N[C@@H]2C(=O)N3C(C(=O)O)=C(CSc4nnnn4C)CS[C@H]23)c2ccc(O)cc2)C(=O)C1=O` had an IC50 of more than 20 µg/mL.
Still for that read-out and setting: the result for `CN(C)C(=O)Oc1cc(OC(=O)N(C)C)cc(C(O)CNC(C)(C)C)c1` (centres undefined) reads more than 20 µg/mL; that for `C[C@]12CC[C@H](O)C[C@@H]1CC[C@@H]1[C@@H]2CC[C@]2(C)C(=O)CC[C@@H]12`, more than 20 µg/mL; that for `O=C1CC2(CCCC2)CC(=O)N1CCCCN1CCN(c2ncccn2)CC1`, more than 20 µg/mL.
Same read-out and setting: the result for `CCC1(c2ccc(N)cc2)CCC(=O)NC1=O` (centres undefined) reads more than 20 µg/mL; that for `COc1ccc2cc(C(C)C(=O)O)ccc2c1` (centres undefined), more than 20 µg/mL; that for `O=C(NCC(O)CO)c1c(I)c(C(=O)NCC(O)CO)c(I)c(N(CCO)C(=O)CO)c1I` (centres undefined), more than 20 µg/mL.
Same read-out and setting: the result for `CO/N=C(\C(=O)N[C@@H]1C(=O)N2C(C(=O)O)=C(COC(N)=O)CS[C@H]12)c1ccco1` reads more than 20 µg/mL; that for `C[C@@H](N)[C@@H](O)c1ccccc1`, more than 20 µg/mL.
Consider `Nc1ccc(S(=O)(=O)Nc2ccnn2-c2ccccc2)cc1`, for which the IC50 is 3.12 µg/mL (≈ 9.92 µM).
Compound `CC1Cc2ccccc2N1NC(=O)c1ccc(Cl)c(S(N)(=O)=O)c1` (centres undefined) yielded an IC50 of more than 20 µg/mL.
On the same count and under the same terms, the result for `O=[N+]([O-])c1cc([As](=O)(O)O)ccc1O` reads more than 20 µg/mL.
`c1ccc([C@H]2CN3CCSC3=N2)cc1` came in with an IC50 of more than 20 µg/mL.
For the compound `CN(C)CC/C=C1\c2ccccc2Sc2ccc(Cl)cc21`, the CC50 is more than 6 µg/mL and the IC50 turned out to be 2.53 µg/mL (≈ 8 µM).
For the compound `O=C1OCCN1/N=C/c1ccc([N+](=O)[O-])o1`, the CC50 is more than 6 µg/mL and the IC50 was 4.8 µg/mL (≈ 21.3 µM).
For `COc1ccc(C2CNC(=O)C2)cc1OC1CCCC1` (centres undefined), the IC50 was more than 20 µg/mL.
Turning to `C[C@H]1C[C@@H]2[C@H]([C@@H](O)C[C@@]3(C)[C@H]2CC[C@]3(O)C(=O)CO)[C@@]2(C)C=CC(=O)C=C12`, the IC50 is more than 20 µg/mL.
With `CCCNCC(O)COc1ccccc1C(=O)CCc1ccccc1` (centres undefined), the IC50 is more than 20 µg/mL.
Take `COc1cc([C@@H]2c3cc4c(cc3[C@@H](O[C@@H]3O[C@@H]5CO[C@@H](C)O[C@H]5[C@H](O)[C@H]3O)[C@H]3COC(=O)[C@H]23)OCO4)cc(OC)c1O`: the CC50 was more than 6 µg/mL and the IC50 was more than 20 µg/mL.
In the same order, the values of `Nc1nc2n[nH]nc2c(=O)[nH]1` are 0.704 µg/mL (≈ 4.63 µM) and more than 20 µg/mL.
The compound `CN(C)c1nc(N(C)C)nc(N(C)C)n1` had an IC50 of more than 20 µg/mL.
Still for that read-out and setting: the result for `CC(C)NCC(O)c1ccc2ccccc2c1` (centres undefined) reads more than 20 µg/mL; that for `COc1ccc(C(=O)OC2C[C@H]3CC[C@H](C2)N3C)cc1OC` (some centres undefined), more than 20 µg/mL.
As for `CC(NCCC(c1ccccc1)c1ccccc1)c1ccccc1` (centres undefined), the CC50 is more than 6 µg/mL and the IC50 was 4.25 µg/mL (≈ 13.5 µM).
Regarding `CC[C@]12CCCN3CCc4c(n(c5ccccc45)[C@](O)(C(=O)OC)C1)[C@@H]32`, the IC50 was more than 20 µg/mL.
Same read-out and setting: the result for `CC[C@@H](C)C(=O)O[C@H]1[C@H](O)[C@H]2[C@@H](CN3C[C@@H](C)CC[C@H]3[C@@]2(C)O)C2C[C@]34O[C@@]5(O)[C@@H](OC(=O)[C@](C)(O)CC)CC[C@@]3(C)[C@@H]5[C@@H](OC(C)=O)[C@@H](OC(C)=O)[C@H]4[C@@]21O` (some centres undefined) reads more than 20 µg/mL.
